Assay [1] addresses T1, EPS15 Homology Domain containing 1 (EHD1) protein (human (endogenous in TC71 and A673)) (UniProt Q9H4M9).
T1 sequence: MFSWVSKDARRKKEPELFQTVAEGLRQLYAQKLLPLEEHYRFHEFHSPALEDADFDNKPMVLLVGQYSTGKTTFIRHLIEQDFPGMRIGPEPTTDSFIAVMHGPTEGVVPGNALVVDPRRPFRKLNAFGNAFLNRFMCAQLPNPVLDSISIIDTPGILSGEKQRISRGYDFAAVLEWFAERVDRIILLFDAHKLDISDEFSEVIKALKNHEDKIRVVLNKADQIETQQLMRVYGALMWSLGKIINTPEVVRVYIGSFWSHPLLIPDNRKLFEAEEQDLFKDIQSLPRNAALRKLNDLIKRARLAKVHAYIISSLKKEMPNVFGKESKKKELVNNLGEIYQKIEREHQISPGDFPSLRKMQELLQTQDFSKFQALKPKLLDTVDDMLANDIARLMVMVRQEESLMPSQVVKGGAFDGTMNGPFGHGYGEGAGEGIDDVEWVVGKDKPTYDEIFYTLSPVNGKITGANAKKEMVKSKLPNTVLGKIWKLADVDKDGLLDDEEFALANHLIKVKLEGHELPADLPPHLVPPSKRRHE
The assay can be described thus: co-IP; anti-IGF-1Rβ or anti-EHD1 immunoprecipitates from 1 mg lysate protein of TC71 and A673 cells (Triton-X-100 lysis buffer, protein A-Sepharose, overnight 4 °C, six washes), blotted for IGF-1Rβ or EHD1; cells serum/IGF-1-deprived for 24 h, then unstimulated or stimulated with IGF-1 (50 ng/ml) for 1 h.

Protein sequences, listed by entry. Tags and fused reporters are not part of them. Lines headed by an entry give the natural chain unless they say otherwise; changes in a name come on top.
UniProt P08069: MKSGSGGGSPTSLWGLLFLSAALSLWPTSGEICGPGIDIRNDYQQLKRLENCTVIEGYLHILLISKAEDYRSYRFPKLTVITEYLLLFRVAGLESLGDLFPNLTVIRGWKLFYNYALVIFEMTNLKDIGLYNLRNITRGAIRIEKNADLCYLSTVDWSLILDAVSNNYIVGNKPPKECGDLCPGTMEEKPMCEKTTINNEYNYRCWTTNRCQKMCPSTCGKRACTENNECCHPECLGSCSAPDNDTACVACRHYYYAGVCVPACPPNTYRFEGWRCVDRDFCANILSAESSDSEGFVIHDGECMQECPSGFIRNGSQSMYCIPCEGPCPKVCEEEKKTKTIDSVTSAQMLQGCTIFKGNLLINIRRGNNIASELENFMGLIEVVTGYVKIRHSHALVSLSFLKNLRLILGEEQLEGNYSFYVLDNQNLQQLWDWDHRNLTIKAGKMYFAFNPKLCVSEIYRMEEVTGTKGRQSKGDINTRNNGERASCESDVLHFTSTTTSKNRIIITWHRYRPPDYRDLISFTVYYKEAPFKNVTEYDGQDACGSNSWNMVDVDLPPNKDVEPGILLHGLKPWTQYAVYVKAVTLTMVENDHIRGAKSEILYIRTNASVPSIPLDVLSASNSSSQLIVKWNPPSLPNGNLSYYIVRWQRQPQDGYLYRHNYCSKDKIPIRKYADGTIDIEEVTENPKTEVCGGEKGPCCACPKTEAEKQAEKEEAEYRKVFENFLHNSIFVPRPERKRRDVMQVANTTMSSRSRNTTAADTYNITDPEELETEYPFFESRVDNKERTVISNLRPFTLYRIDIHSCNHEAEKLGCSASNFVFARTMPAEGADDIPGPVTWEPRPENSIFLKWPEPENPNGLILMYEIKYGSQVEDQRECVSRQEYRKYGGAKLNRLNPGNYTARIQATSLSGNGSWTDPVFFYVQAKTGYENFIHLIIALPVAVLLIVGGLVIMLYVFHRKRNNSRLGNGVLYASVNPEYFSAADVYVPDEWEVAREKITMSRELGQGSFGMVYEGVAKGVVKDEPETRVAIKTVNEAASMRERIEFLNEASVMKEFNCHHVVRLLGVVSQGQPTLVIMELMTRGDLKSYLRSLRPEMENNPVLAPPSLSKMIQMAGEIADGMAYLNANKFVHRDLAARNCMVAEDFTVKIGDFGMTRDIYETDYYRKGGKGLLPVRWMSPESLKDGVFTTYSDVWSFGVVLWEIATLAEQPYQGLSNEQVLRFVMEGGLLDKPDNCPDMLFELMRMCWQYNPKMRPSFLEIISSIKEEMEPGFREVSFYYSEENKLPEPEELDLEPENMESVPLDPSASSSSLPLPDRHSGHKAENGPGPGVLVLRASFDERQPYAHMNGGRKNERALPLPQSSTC

Assay [2] concerns the target insulin-like growth factor 1 receptor (IGF-1R) (human (endogenous in TC71 and A673)) (UniProt P08069). The assay is described as above.

These are yes or no findings as the source states them, for the method shown. In cells and extracts the contact can be indirect. Some binding calls cover weakened binding; strength is not graded here.

As for “insulin-like growth factor 1 receptor (IGF-1R) (from UniProt P08069 31-736; P08069 741-1367)”, the binding entry in assay [1] is recorded as “binds”.

B1: EPS15 Homology Domain containing 1 (EHD1) protein (protein, UniProt Q9H4M9 1-534)
chain: T1 sequence
With B1, the binding result in assay [2] is reported as “binds”.

(Values after paper PMC10359273.)
